Patent US20210380703A1
Results are given in words; binding and its absence hold for the method and conditions named. Where a sequence is shown, tags or fusion partners need not be part of it.

T1: His-tagged Human ACVR2B (human) (UniProt Q13705)
T1 sequence (looked up): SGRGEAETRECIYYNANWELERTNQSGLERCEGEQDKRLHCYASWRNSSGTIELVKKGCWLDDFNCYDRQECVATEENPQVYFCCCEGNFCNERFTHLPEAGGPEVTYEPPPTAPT

T2: His-tagged Mouse ACVR2B (mouse) (UniProt P27040)
T2 sequence (looked up): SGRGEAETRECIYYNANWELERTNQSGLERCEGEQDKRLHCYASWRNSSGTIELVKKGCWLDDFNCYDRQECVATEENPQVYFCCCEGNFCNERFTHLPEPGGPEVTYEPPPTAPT


Assays:
[1] = target: T1, His-tagged Human ACVR2B (human); experiment: ELISA, coated His-tagged antigen, 10 pt
[2] = target: T2, His-tagged Mouse ACVR2B (mouse); experiment: ELISA, coated His-tagged antigen, 10 pt
[3] = target: T1, His-tagged Human ACVR2B (human); experiment: ELISA, coated antigen, 10 pt
[4] = target: T2, His-tagged Mouse ACVR2B (mouse); experiment: ELISA, coated antigen, 10 pt

Row | Binder | binding [1] | binding [2] | binding [3] | binding [4]
1 | 367_H01 (antibody, V domains shown) VH: EVQLLESGGGLVQPGGSLRLSCAASGFTFDSYGMNWVRQAPGKGLEWVSGINYNGGYKSYADSVKGRFTISRDNSKNTLYLQMNSLRAEDTAVYYCARAANWHDTALDYWGQGTLVTVSS VL: DIQMTQSPSSLSASVGDRVTITCRASQSILTYLNWYQQKPGKAPKLVIYAATSRASGVPSRFSGSGSGTDFTLTISSLQPEDFATYYCQQSYDNPLTFGGGTKVEIK | no binding (tested: 1 uM) | no binding (tested: 1 uM) |  | 
2 | 369_E03 (antibody, V domains shown) VH: EVQLLESGGGLVQPGGSLRLSCAASGFTFSSYGMHWVRQAPGKGLEWVAGINYNGGYTSYADSVKGRFTISRDNSKNTLYLQMNSLRAEDTAVYYCARAATWHDTHLDYWGQGTLVTVSS VL: DIQMTQSPSSLSASVGDRVTITCRASQSILSYVNWYQQKPGKAPKLLIYAATSLASGVPSRFSGSGSGTDFTLTISSLQPEDFATYYCQQSYENPLTFGGGTKVEIK | no binding (tested: 1 uM) |  |  | 
3 | 371_D07 (antibody, V domains shown) VH: EVQLLESGGGLVQPGGSLRLSCAASGFTFDDYGMNWVRQAPGKGLEWVANINYNGGYKGYADSVKGRFTISRDNSKNTLYLQMNSLRAEDTAVYYCARAANWHDTHLDYWGQGTLVTVSS VL: DIQMTQSPSSLSASVGDRVTITCRASQSILTYLNWYQQKPGKAPKLVIYAATSRASGVPSRFSGSGSGTDFTLTISSLQPEDFATYYCQQSYELPLTFGGGTKVEIK | no binding (tested: 1 uM) | no binding (tested: 1 uM) |  | 
4 | 368_F10 (antibody, V domains shown) VH: EVQLLESGGGLVQPGGSLRLSCAASGFTFSSYGMNWVRQAPGKGLEWVAGINYNSGYTSYADSVKGRFTISRDNSKNTLYLQMNSLRAEDTAVYYCARAANWHDTHLDYWGQGTLVTVSS VL: DIQMTQSPSSLSASVGDRVTITCRASQSIVSYVNWYQQKPGKAPKLLIYAATSRASGVPSRFSGSGSGTDFTLTISSLQPEDFATYYCQQSYDTPLTFGGGTKVEIK | no binding (tested: 1 uM) | no binding (tested: 1 uM) |  | 
5 | 369_B03 (antibody, V domains shown) VH: EVQLLESGGGLVQPGGSLRLSCAASGFTFSSYGMHWVRQAPGKGLEWVAGINYNGGYTSYADSVKGRFTISRDNSKNTLYLQMNSLRAEDTAVYYCARAANWHDTALDYWGQGTLVTVSS VL: DIQMTQSPSSLSASVGDRVTITCRASQSILTYVNWYQQKPGKAPKLVIYAATSLASGVPSRFSGSGSGTDFTLTISSLQPEDFATYYCQQSYELPLTFGGGTKVEIK | no binding (tested: 1 uM) | no binding (tested: 1 uM) |  | 
6 | 368_B10 (antibody, V domains shown) VH: EVQLLESGGGLVQPGGSLRLSCAASGFTFDSYGMHWVRQAPGKGLEWVASINYNGGYTSYADSVKGRFTISRDNSKNTLYLQMNSLRAEDTAVYYCARAANWHDTALDYWGQGTLVTVSS VL: DIQMTQSPSSLSASVGDRVTITCRASQSILTYLNWYQQKPGKAPKLVIYAATSRASGVPSRFSGSGSGTDFTLTISSLQPEDFATYYCQQSDELPLTFGGGTKVEIK | no binding (tested: 1 uM) | no binding (tested: 1 uM) |  | 
7 | 368_A12 (antibody, V domains shown) VH: EVQLLESGGGLVQPGGSLRLSCAASGFTFDSYSMHWVRQAPGKGLEWVSSINYNSGYKGYADSVKGRFTISRDNSKNTLYLQMNSLRAEDTAVYYCARAANWHDTALDYWGQGTLVTVSS VL: DIQMTQSPSSLSASVGDRVTITCRASQSILTYLNWYQQKPGKAPKLVIYAATSRASGVPSRFSGSGSGTDFTLTISSLQPEDFATYYCQQSYDSPLTFGGGTKVEIK | no binding (tested: 1 uM) | no binding (tested: 1 uM) |  | 
8 | 369_H03 (antibody, V domains shown) VH: EVQLLESGGGLVQPGGSLRLSCAASGFTFSSYSMHWVRQAPGKGLEWVASINYNSGYKSYADSVKGRFTISRDNSKNTLYLQMNSLRAEDTAVYYCARAANWHDTALDYWGQGTLVTVSS VL: DIQMTQSPSSLSASVGDRVTITCRASQSIVSYLNWYQQKPGKAPKLLIYATTSRASGVPSRFSGSGSGTDFTLTISSLQPEDFATYYCQQSYDTPLTFGGGTKVEIK | no binding (tested: 1 uM) | no binding (tested: 1 uM) |  | 
9 | 372_B11 (antibody, V domains shown) VH: EVQLLESGGGLVQPGGSLRLSCAASGFTFSSYSMHWVRQAPGKGLEWVAGINYNSGYTSYADSVKGRFTISRDNSKNTLYLQMNSLRAEDTAVYYCARAANWHDTHLDYWGQGTLVTVSS VL: DIQMTQSPSSLSASVGDRVTITCRASQSILTYVNWYQQKPGKAPKLVIYAATSLASGVPSRFSGSGSGTDFTLTISSLQPEDFATYYCQQSYDTPLTFGGGTKVEIK | no binding (tested: 1 uM) | no binding (tested: 1 uM) |  | 
10 | 370_B01 (antibody, V domains shown) VH: EVQLLESGGGLVQPGGSLRLSCAASGFTFDDYGMHWVRQAPGKGLEWVSGINYNGGYKSYADSVKGRFTISRDNSKNTLYLQMNSLRAEDTAVYYCARAANWHDTALDYWGQGTLVTVSS VL: DIQMTQSPSSLSASVGDRVTITCRASQSILSYVNWYQQKPGKAPKLLIYVASSRASGVPSRFSGSGSGTDFTLTISSLQPEDFATYYCQQSYSLPLTFGGGTKVEIK | no binding (tested: 1 uM) | no binding (tested: 1 uM) |  | 

Next, values leading:

Row | binding [1] | binding [2] | binding [3] | binding [4] | Binder
11 |  |  | no binding (tested: 1 uM) | no binding (tested: 1 uM) | 374_C01 (antibody, V domains shown) VH: EVQLLESGGGLVQPGGSLRLSCAASGFTFDSYGMNWVRQAPGKGLEWVSGINYNSGYKSYADSVKGRFTISRDNSKNTLYLQMNSLRAEDTAVYYCARGANWHDTALDYWGQGTLVTVSS VL: DIQMTQSPSSLSASVGDRVTITCRASQSILTYLNWYQQKPGKAPKLLIYAATSRASGVPSRFSGSGSGTDFTLTISSLQPEDFATYYCQQSYETPLTFGGGTKVEIK
12 |  |  | no binding (tested: 1 uM) | no binding (tested: 1 uM) | 374_C09 (antibody, V domains shown) VH: EVQLLESGGGLVQPGGSLRLSCAASGFTFDSYGMNWVRQAPGKGLEWVSSINYNGGYKGYADSVKGRFTISRDNSKNTLYLQMNSLRAEDTAVYYCARGANWHDTHLDYWGQGTLVTVSS VL: DIQMTQSPSSLSASVGDRVTITCRASQSIVSYLNWYQQKPGKAPKLVIYAATSRASGVPSRFSGSGSGTDFTLTISSLQPEDFATYYCQQSYELPLTFGGGTKVEIK
13 | no binding (tested: 1 uM) | no binding (tested: 1 uM) |  |  | 373_E11 (antibody, V domains shown) VH: EVQLLESGGGLVQPGGSLRLSCAASGFTFDSYGMHWVRQAPGKGLEWVASINYNGGYTSYADSVKGRFTISRDNSKNTLYLQMNSLRAEDTAVYYCARAANWHDTALDYWGQGTLVTVSS VL: DIQMTQSPSSLSASVGDRVTITCRASQSIVSYLNWYQQKPGKAPKLVIYAATSRASGVPSRFSGSGSGTDFTLTISSLQPEDFATYYCQQSYDSPLTFGGGTKVEIK
14 |  |  | no binding (tested: 1 uM) | no binding (tested: 1 uM) | 374_G08 (antibody, V domains shown) VH: EVQLLESGGGLVQPGGSLRLSCAASGFTFDSYSMNWVRQAPGKGLEWVSGINYNGGYTSYADSVKGRFTISRDNSKNTLYLQMNSLRAEDTAVYYCARGANWHDTALDYWGQGTLVTVSS VL: DIQMTQSPSSLSASVGDRVTITCRASQSILTYVNWYQQKPGKAPKLVIYAATSRASGVPSRFSGSGSGTDFTLTISSLQPEDFATYYCQQSYDSPLTFGGGTKVEIK
15 |  |  | no binding (tested: 1 uM) | no binding (tested: 1 uM) | 374_B03 (antibody, V domains shown) VH: EVQLLESGGGLVQPGGSLRLSCAASGFTFDSYSMNWVRQAPGKGLEWVSGINYNGGYTSYADSVKGRFTISRDNSKNTLYLQMNSLRAEDTAVYYCARGANWHDTALDYWGQGTLVTVSS VL: DIQMTQSPSSLSASVGDRVTITCRASQSILTYLNWYQQKPGKAPKLVIYAATSRASGVPSRFSGSGSGTDFTLTISSLQPEDFATYYCQQSYDSPLTFGGGTKVEIK
16 |  |  | no binding (tested: 1 uM) | no binding (tested: 1 uM) | 375_A07 (antibody, V domains shown) VH: EVQLLESGGGLVQPGGSLRLSCAASGFTFDSYSMNWVRQAPGKGLEWVSSINYNSGYTGYADSVKGRFTISRDNSKNTLYLQMNSLRAEDTAVYYCARGANWHDTHLDYWGQGTLVTVSS VL: DIQMTQSPSSLSASVGDRVTITCRASQSILTYLNWYQQKPGKAPKLLIYAATSRASGVPSRFSGSGSGTDFTLTISSLQPEDFATYYCQQSYDTPLTFGGGTKVEIK
17 |  |  | no binding (tested: 1 uM) | no binding (tested: 1 uM) | 375_A12 (antibody, V domains shown) VH: EVQLLESGGGLVQPGGSLRLSCAASGFTFSSYSMNWVRQAPGKGLEWVSGINYNSGYKSYADSVKGRFTISRDNSKNTLYLQMNSLRAEDTAVYYCARGANWHDTALDYWGQGTLVTVSS VL: DIQMTQSPSSLSASVGDRVTITCRASQSILSYLNWYQQKPGKAPKLVIYAVTSRASGVPSRFSGSGSGTDFTLTISSLQPEDFATYYCQQSYETPLTFGGGTKVEIK
18 |  |  | no binding (tested: 1 uM) | no binding (tested: 1 uM) | 374_D05 (antibody, V domains shown) VH: EVQLLESGGGLVQPGGSLRLSCAASGFTFDSYSMNWVRQAPGKGLEWVSGINYNSGYTGYADSVKGRFTISRDNSKNTLYLQMNSLRAEDTAVYYCARGANWHDTHLDYWGQGTLVTVSS VL: DIQMTQSPSSLSASVGDRVTITCRASQSILTYLNWYQQKPGKAPKLLIYAATSRASGVPSRFSGSGSGTDFTLTISSLQPEDFATYYCQQSYDTPLTFGGGTKVEIK
